Test results reported in paper PMC13202173, “Polyphosphate as a novel regulator of super-enhancer complexes: disruption of phase separation and gene expression”.
No constants are given. Whether binding was seen depends on the method and setting. In cells and extracts the contact can be indirect. Some entries that bind do so weakly or less than the wild type.

By UniProt entry, the sequences of proteins in these tests, tags left out.
UniProt P25490: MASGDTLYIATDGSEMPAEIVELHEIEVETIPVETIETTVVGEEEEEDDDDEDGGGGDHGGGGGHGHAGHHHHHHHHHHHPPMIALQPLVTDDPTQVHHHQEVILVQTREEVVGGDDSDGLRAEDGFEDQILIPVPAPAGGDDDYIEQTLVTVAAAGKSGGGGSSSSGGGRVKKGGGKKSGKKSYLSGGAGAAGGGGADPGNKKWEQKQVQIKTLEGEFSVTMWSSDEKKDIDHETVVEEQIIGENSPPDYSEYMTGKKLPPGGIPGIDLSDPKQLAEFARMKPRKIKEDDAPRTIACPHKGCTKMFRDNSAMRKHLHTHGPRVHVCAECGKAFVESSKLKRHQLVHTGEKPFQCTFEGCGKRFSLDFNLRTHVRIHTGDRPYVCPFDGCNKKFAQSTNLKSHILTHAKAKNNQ

Key:
[1] = target: Yin Yang 1 (YY1), FLAG-tagged and HA-tagged copies (UniProt P25490); assay: condition: only with polyP100 (5 mM polyP by the methods); co-IP; as a1 but with polyP100 added to the immunoprecipitation (5 mM polyP by the methods)
[2] = target: Yin Yang 1 (YY1), FLAG-tagged and HA-tagged copies (UniProt P25490); assay: co-IP; as a1 but with 5 mM polyP700 added to the bead and extract mixture
[3] = target: Yin Yang 1 (YY1), FLAG-tagged and HA-tagged copies (UniProt P25490); assay: co-IP; equal amounts (100 ug each) of nuclear extracts from HeLa cells singly transfected with FLAG-YY1 or HA-YY1 were mixed; anti-HA on protein G beads, overnight at 4 °C; ddH2O instead of polyP; blot with anti-FLAG and anti-HA
[4] = target: Yin Yang 1 (YY1), FLAG-tagged and HA-tagged copies (UniProt P25490); assay: condition: only in nuclear extracts from cells co-expressing PPK1 (polyP accumulation); co-IP; 100 ug nuclear extract from HeLa cells triple-transfected with FLAG-YY1, HA-YY1 and mCherry-PPK1 (polyP made in the cells); anti-HA on protein G beads, overnight at 4 °C

binding [1]: no binding
binding [3]: binds
binding [4]: no binding
Substance: Yin Yang 1 (YY1), FLAG-tagged and HA-tagged copies (from UniProt P25490 1-414)
binding [2]: no binding (condition: with 5 mM polyP700)
